Results published in paper PMC7480105, “Wbox2: A clathrin terminal domain–derived peptide inhibitor of clathrin-mediated endocytosis” (The Journal of Cell Biology, 2020).
Results are given in words; binding and its absence hold for the method and conditions named. In cells and extracts the contact can be indirect. A yes stands for co-enrichment or nearness to the bait. Other partners may have been found.

Protein sequences, listed by entry. Tags and fused reporters are not part of them. Residues count along the entry.
UniProt P49951, residues 1-1074: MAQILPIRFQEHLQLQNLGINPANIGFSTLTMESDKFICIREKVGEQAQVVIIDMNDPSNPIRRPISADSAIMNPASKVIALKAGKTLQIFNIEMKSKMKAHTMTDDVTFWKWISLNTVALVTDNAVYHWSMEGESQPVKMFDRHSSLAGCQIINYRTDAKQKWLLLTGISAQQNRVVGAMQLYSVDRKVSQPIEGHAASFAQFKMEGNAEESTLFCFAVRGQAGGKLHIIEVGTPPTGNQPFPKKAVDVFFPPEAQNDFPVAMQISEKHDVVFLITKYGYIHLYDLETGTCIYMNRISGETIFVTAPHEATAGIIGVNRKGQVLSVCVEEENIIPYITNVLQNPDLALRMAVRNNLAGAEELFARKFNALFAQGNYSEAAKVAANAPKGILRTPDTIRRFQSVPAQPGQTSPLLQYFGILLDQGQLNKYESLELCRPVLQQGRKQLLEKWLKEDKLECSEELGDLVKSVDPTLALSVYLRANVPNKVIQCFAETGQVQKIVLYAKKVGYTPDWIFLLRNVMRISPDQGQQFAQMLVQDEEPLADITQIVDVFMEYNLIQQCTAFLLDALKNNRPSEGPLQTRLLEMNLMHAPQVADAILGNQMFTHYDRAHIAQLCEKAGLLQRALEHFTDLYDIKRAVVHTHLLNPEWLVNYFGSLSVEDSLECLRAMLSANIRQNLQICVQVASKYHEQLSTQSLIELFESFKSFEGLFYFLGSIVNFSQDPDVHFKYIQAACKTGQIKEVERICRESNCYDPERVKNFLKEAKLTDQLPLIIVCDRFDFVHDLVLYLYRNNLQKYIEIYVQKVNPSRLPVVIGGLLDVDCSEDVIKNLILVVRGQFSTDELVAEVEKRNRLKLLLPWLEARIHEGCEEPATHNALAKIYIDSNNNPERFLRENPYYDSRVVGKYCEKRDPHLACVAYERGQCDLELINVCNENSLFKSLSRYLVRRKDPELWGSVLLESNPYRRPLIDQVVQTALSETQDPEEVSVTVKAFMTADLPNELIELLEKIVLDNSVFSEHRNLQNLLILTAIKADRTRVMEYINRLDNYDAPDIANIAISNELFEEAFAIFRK
UniProt Q9Y5X1: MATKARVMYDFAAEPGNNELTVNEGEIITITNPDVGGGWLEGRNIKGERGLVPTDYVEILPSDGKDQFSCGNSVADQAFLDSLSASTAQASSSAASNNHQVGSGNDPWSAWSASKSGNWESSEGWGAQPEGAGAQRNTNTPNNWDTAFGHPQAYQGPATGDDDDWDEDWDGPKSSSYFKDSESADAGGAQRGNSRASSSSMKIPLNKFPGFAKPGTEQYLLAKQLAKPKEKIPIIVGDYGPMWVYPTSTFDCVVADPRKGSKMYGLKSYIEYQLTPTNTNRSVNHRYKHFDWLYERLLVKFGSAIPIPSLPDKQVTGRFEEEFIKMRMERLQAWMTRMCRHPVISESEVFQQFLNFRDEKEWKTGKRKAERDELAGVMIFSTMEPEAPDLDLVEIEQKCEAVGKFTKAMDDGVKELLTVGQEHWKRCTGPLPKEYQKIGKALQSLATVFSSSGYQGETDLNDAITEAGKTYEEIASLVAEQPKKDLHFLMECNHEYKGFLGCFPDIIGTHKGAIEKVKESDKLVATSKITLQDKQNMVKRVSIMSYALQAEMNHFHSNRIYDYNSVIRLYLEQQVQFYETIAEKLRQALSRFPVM

Molecular target: HA-tagged TDD: clathrin heavy chain N-terminal domain plus distal leg (residues 1-1,074) (UniProt P49951)
Assay: affinity purification with mass spectrometry; HA-TDD immunoprecipitated from ARPE cell lysate (with or without HA-TDD expression) with HA antibody and Protein G Sepharose; Hepes/KCl buffer pH 7.4, 0.25% Triton X-100, 4°C; three independent trials

- binding: binds
Substance: SNX9 (endogenous, ARPE cells) (from UniProt Q9Y5X1 1-595)
